± gives the standard deviation. The entries are a selection whose mix differs from that of the whole data set. Many of these values have a large error.

This experiment has as its system MIWI (PIWIL1) piRISC loaded with piRNA #2 (30 nt). Nature of the experiment: pre-steady-state target cleavage rate (min^-1); MIWI and MILI are mouse PIWI proteins and EfPiwi is from a freshwater sponge; tags in brackets are library labels; higher = faster piRNA-guided slicing of the target. The following applies: guide: piRNA #2 5'p-UUAGGUAACCCAGUAGAUCCAGAGGAAUUC; auxiliary factor: 500 nM mouse GTSF1. How it is done:
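Cleave-'n-Seq: a library of target RNAs (target site embedded in constant flanks, ACAGCATTCCGCGTTAGTGATATCCG... 5' flank; DNA-blocked outside the site) at 0.1 nM was incubated with 1 nM active mouse MILI or MIWI piRISC (synthetic 5'-monophosphorylated piRNA guide) with or without 500 nM mouse GTSF1 at 33 °C for 1 min to 16 h. Uncleaved targets were sequenced and normalised to non-target controls, and the pooled three trials were fitted to a burst-and-steady-state model to give the pre-steady-state cleavage rate (min^-1; k3 is constrained to at most 1e-4). Sequence is the target site only; target names encode pairing extent (gX:gY) and contiguous / 1-mismatch / 2-mismatch / bulge geometry. Fits with R² ≤ 0 are excluded.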
Turning to CUUAAGGAGACCUAGACCUGGGUUACCUAA, the “pre-steady-state target cleavage rate” value is 0.000645 ± 0.0097.
The value for CUAUUCCUCUGGAUCUACUGGGUUAACUAA was 0.349 ± 0.071; that for CUUAAGGAGUGGAUCUUCUCGGUUACCUAA was 0.000948 ± 0.012; that for CUUAAGGAGACCUACUACUGGGUUACCAA was 0.00201 ± 0.0034.
The value for CUUAAGGAGAGGAUCUACUGGGGUACCUAA was 0.00225 ± 0.0056; that for CUUAAGGAGUCGAUCUACUGCGUUACCUAA was 0.000666 ± 0.014.
With CUUAAGGACUGCAUCUAGUGGGUUACCUAA, the “pre-steady-state target cleavage rate” value amounted to 0.00102 ± 0.021.
Take CUUAAGGAGAGGAAGUACUGGGUUACCUAA: the “pre-steady-state target cleavage rate” value was found to be 0.000368 ± 0.024.
Then CUUAAGGAGAGGUUCUACUGGGUUACCAAA, with 0.00205 ± 0.0036; and CUUAUCCUCUGGAUACUACUGGGUUACCUAA, with 0.419 ± 0.059.
The value for CUUAAGGAGAGGAUCAACUGGGUUACCAAA was 0.00031 ± 0.017; that for CUUAAGGACUGGACUACUGGGUUACCUAA was 0.00281 ± 0.013.
Then CUUAAGGAGACCUUCUACUGGGCUACCUAA, with 0.00139 ± 0.0086.
In the case of CUUAAGGAGUGGAUCUACUGGGUAACCAAA, the “pre-steady-state target cleavage rate” value came out at 0.000256 ± 0.021.
The value for CUUAAGGAGACCUACUACUGGCUUACGUAA was 0.00155 ± 0.007; that for CUUAAGGAGACCUACUACUGGGUUAGCUAA was 0.00141 ± 0.0043.
Then CUUAAGGAGUGGAUCUACUCGCUUACCUAA, with 0.000421 ± 0.025; and CUUAAGGAGACCUAGUAGCUGGGUUACCUAA, with 0.000957 ± 0.0081.
On to CUUAAGGAGACCAUCUACUGGCAAACCUAA, for which the “pre-steady-state target cleavage rate” value amounted to 0.000112 ± 0.032.
Then CUUAAGGAGACCUAGUACUGGGUUACACUAA, with 0.000699 ± 0.011; and CUUAAGGAGACCUACUACUGGGUUACCUAAA, with 0.00284 ± 0.0042; and CUUAAGGAGACCUAGUACUGGGAUUACCUAA, with 0.000773 ± 0.0084.
Regarding CUUAAGGAGACCUUUUACUGGGUUACCUAA, the “pre-steady-state target cleavage rate” value is 0.00255 ± 0.0046.
Then CUUAAGGAGACGAUCUAUCUGGGUUACCUAA, with 0.000993 ± 0.012.
Then CUUAAGGAGACGAACUACUGGGUUUCCUAA, with 0.000951 ± 0.0059; and CUUAAGGAGUGGAUCUACUGGGUUUCCUUA, with 0.00259 ± 0.0031.
The value for CUUAAGCUCUGGAUCUACUGGGUUACCUCAA was 0.0988 ± 0.015; that for CUUAAGGAGACGAUCUACUGGGUUACCCUAA was 0.00138 ± 0.0032.
As for CUUAAGGAGUGGAUCUACUCCGUUACCUAA, the “pre-steady-state target cleavage rate” value stood at 0.00175 ± 0.0093.
As to CUUAAGGAGAGGAUCUUACUGGGUUACCUAA, the “pre-steady-state target cleavage rate” value is 0.000254 ± 0.019.
The value for CUAUUCGUCUGGAUCUACUGGGUUACCAAA was 0.36 ± 0.064.
The value for CUUAAGGAGACCAUCAACUGGGUUACGUAA was 0.000146 ± 0.03; that for CUUAAGGAGACCUAGAUCUGGGUUAGCUAA was 0.000569 ± 0.0097.
Then CUUAAGGAGACCAUCUAGUGGGUUAGCUAA, with 0.000641 ± 0.016.
CUUAAGGAGUGGAACUACUGGGUUUCCUAA: the “pre-steady-state target cleavage rate” value turned out to be 0.000655 ± 0.017.
Then CUAUUCCUCUGGUUCUACUGGGUUACCUUA, with 0.371 ± 0.057; and CUUAAGGAGACCUACUACUGGCAUACCUAA, with 0.000715 ± 0.007; and CUUAAGGAGACGAUCUACGGGUUACCUAA, with 0.00144 ± 0.0086.
The value for GAAUUGCUCAGGAUCUACUGGGUUACCUAA was 0.168 ± 0.037.
For CUUAAGGAGACCUUCUACUCGGUUACCAAA, the “pre-steady-state target cleavage rate” value came out at 0.000734 ± 0.0098.
Then CUUAAGGACUGCAUCUACUGGGAUACCUAA, with 0.000558 ± 0.033; and CUAUUCCUCUGGAAGUACUGGGUUACCUAA, with 0.631 ± 0.046; and CAAUUCCUCUUGGAUCUACUGGGUUACCUAA, with 0.358 ± 0.046.
On to GAAUUCCUCUGGUUCUACUGGGUUUCCUAA, for which the “pre-steady-state target cleavage rate” value was determined as 0.923 ± 0.3.
With CUUAAGGAGACCUAGUACUGGGUUACCUAAA, the “pre-steady-state target cleavage rate” value was 0.000845 ± 0.0085.
For the sequence CUUAAGGAGACCUUCUACUGGGUUACCUGA, the “pre-steady-state target cleavage rate” value was determined as 0.000964 ± 0.0086.
The value for CUUAAGGACUGGAUCUACUCGGUUACCUUA was 0.013 ± 0.018; that for CUUAAGGACUGGAUCUUCUCGGUUACCUAA was 0.00636 ± 0.01.
CUUAAGGAGACCAUCUACUGGGUUACUAA: the “pre-steady-state target cleavage rate” value worked out at 0.000889 ± 0.0069.
The value for CUUAAGGAGACCUAGAUGAGGGUUACGUAA was 0.000924 ± 0.0066.
The value for GAAUUCCUCUGGAUCUACUGGAGUUACCUAA was 0.00576 ± 0.0035; that for CUUAAGGAGACGAUCUACUGGCUUACCUAA was 0.000737 ± 0.015; that for CUUUUCCUCUCCAUCUACUGGGUUACCUAA was 0.554 ± 0.044.
Then CUUAAGGAGACCAUCUACUGGGUAACCUAA, with 0.000893 ± 0.0039; and CUUAAGGACUGGAUGUACUGGGAUACCUAA, with 0.016 ± 0.019.
Turning to CUUAAGGAGACCUAGUACAGGGUUACGUAA, the “pre-steady-state target cleavage rate” value came to 0.000683 ± 0.01.
Then CUUAAGGAGACCUACUACUGGGUUACGCUAA, with 0.0018 ± 0.0053; and “CUUUUCCUCUGGAUCUACUGCCAAUGGAUA [g11:g27:cont:t1A]”, with 0.000115 ± 0.027.
The value for CUUAAGGAGACCUAGAUGACGAGUUACCUAA was 0.000205 ± 0.016; that for “CUUAAGGAGACCUACUACUGGGUUACCUAU [g2:g16:cont:t1U]” was 0.00178 ± 0.007.
Then CUUAUCCUCUGGAUCUACUGGUUACCUAA, with 0.0947 ± 0.024; and “CAAUUCCUCUGGAUCUACUGGGUUAGGAUA [g6:g29:cont:t1A]”, with 0.00199 ± 0.0063.
In the case of CUUAAGGAGACCAUCUACUCCCUUACCUAA, the “pre-steady-state target cleavage rate” value came to 0.000407 ± 0.021.
Then CUUAAGGAGACGAUCUACUGGGUUACCAUAA, with 0.0011 ± 0.0067.
The value for CUUAAGGAGACGAGUCUACUGGGUUACCUAA was 0.000928 ± 0.0081; that for CAAUUCCUCUGGGUCUACUGGGUUACCUAA was 0.562 ± 0.037; that for CUUUUCCUCUGGAUCAACUGGGUUUCCUAA was 0.165 ± 0.034.
For CUUAAGGAGACGAUCUACUGGCUUACCAAA, the “pre-steady-state target cleavage rate” value is 0.000193 ± 0.029.
The value for CUUAAGGAGACCAUCUUCUGGCUUACCUAA was 0.00117 ± 0.0045.
The value for CUUAAGGACUGGAUCUACUCGGUUUCCUAA was 0.00176 ± 0.016.
As for CUUAAGGUCUGCUACUACUGGGUUACCUAA, the “pre-steady-state target cleavage rate” value amounted to 0.00486 ± 0.0087.

The values above are taken from the supplement of paper PMC10338343.
